Consider 102 compounds from PubChem BioAssay AID602441 (National Center for Advancing Translational Sciences (NCATS), 2012).

The campaign covered roughly 1,300 compounds. Fewer than 10 were called active. Roughly 9% stayed inconclusive and do not appear here. The call rests on the fitted dose curve; in most records, active means well fitted curve in the direction sought with a large enough effect; inconclusive means small, poorly fitted or top-dose-only effect, or another doubt; inactive means no such curve, though single readings can be large or run the other way. The list shows a part of the results.

The assay is described as follows: qHTS for antagonists of the Thyroid Stimulation Hormone Receptor: Hit Validation in Parental Cell Line. Further: 0% is about no effect. Particulars: parental HEK293 cells lacking TSHR, counter-screen; series mostly up to 56.9 µM; activity change, negative = inhibition: at the top concentration. In a few lines: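 Counterscreen in untransfected parental HEK-EM 293 cells. Lysate cAMP displaces cAMP-d2 from cryptate-tagged anti-cAMP antibody, and homogeneous TR-FRET is read at 665 nm with 337 nm excitation after stimulation.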
A general note: In qHTS, concentration-response curves come from the screen itself.
On to `CC(=O)NC12CC3CC(C1)CC(C(=O)OCC(=O)c1ccc4c(c1)OCCO4)(C3)C2`, for which the “activity change, negative = inhibition” value is inactive: 3.23%.
Take `CC1CC(C)CN(CCCNC(=O)CN2C(=O)COc3ccc(S(=O)(=O)N4CCOCC4)cc32)C1` (configuration not stated): the “activity change, negative = inhibition” value was inactive: 4.98%.
As for `Cc1ccc(Nc2nc(N3CCOCC3)nc(N3CCOCC3)n2)cc1Cl`, the “activity change, negative = inhibition” value is inactive: -1.63%.
To `Cc1ccc(S(=O)(=O)N2CCN(C(=O)Cc3ccsc3)CC2)c(C)c1` belongs inactive: 3.15%.
To `CC(C)Nc1nc(SC(C)C(=O)Nc2ccccc2)nc(N(C)C)n1` (configuration not stated) belongs inactive: 1.47%; to `CC1CCCC(NC(=O)CN2C(=O)COc3ccccc32)C1C` (configuration not stated), inactive: 0.576%; to `Cc1ccccc1N1CCN(C2CCCN(C(=O)c3cnsn3)C2)CC1` (configuration not stated), inactive: -0.898%.
The same measure for `CCCCOc1ccc(/C=N/Nc2cc(N3CCOCC3)nc(C)n2)cc1`: inactive: -18.4%; for `Cc1ccc(S(=O)(=O)c2c(C(=O)c3ccccc3)cnc3cc4c(cc23)OCCO4)cc1`: inactive: 4.46%; for `O=C(CNc1ccc(C(F)(F)F)cc1)Nc1cccc(S(=O)(=O)N2CCCC2)c1`: inactive: 0.458%.
With `CCOC(=O)c1sc(NC(=O)c2cc(-c3ccccc3)nc3ccccc23)c(C#N)c1C`, the “activity change, negative = inhibition” value is inactive: -3%.
Turning to `O=C(O)c1nn(CC(=O)N2CCN(c3ncc(C(F)(F)F)cc3Cl)CC2)c(=O)c2ccccc12`, the “activity change, negative = inhibition” value is inactive: -0.862%.
As for `COC(=O)CSc1nc(-c2ccccc2)cc(-c2ccco2)c1C#N`, the “activity change, negative = inhibition” value is inactive: -1.63%.
The same measure for `O=C(c1ccco1)N1CCN(c2ncnc3c2nnn3Cc2ccccc2Cl)CC1`: inactive: -8.18%; for `Cc1nn(-c2ccccc2)c(C)c1NC(=O)COc1ccc(Br)cc1Cl`: inactive: 2.09%.
The same measure for `CC(=O)N1c2ccc(S(=O)(=O)NCCC(=O)Nc3ccccc3C)cc2CC1C` (configuration not stated): inactive: 5.94%; for `CC1(C)CC2(CCCN3C(=O)CSC32)CCS1` (configuration not stated): inactive: 4.66%; for `O=C(Nc1cccc2ccccc12)c1ccccc1`: inactive: 3.19%.
For `COc1ccc(C(=O)NC2CCCc3c2cnn3-c2cccc(C)c2C)c(OC)n1` (configuration not stated), the “activity change, negative = inhibition” value was inactive: -0.938%.
The same measure for `Cc1ccc(NC(=O)c2nc(S(=O)(=O)Cc3ccccc3C)ncc2Cl)cc1C`: inactive: 3.07%; for `Cc1ccccc1NC(=O)C1C2CCCCC21` (configuration not stated): inactive: 4.92%; for `O=C(OCc1cc(Cl)ccc1OC(F)F)c1cncc(Br)c1`: inactive: -3.16%.
The same measure for `COc1ccc(Cc2nc(-c3ccc(-n4cccc4)cc3)no2)cc1OC`: inactive: 2.07%.
To `O=C(Nc1ccc(Cl)c(Cl)c1)Nc1ccccc1O` belongs inactive: -4.98%.
Turning to `COc1ccc(C(=O)N2CCN(c3ccc([N+](=O)[O-])c(NCCc4ccc(OC)c(OC)c4)c3)CC2)cc1`, the “activity change, negative = inhibition” value is inactive: -1.33%.
To `Cc1cccc(N2CCN(S(=O)(=O)c3ccc4c(c3)NC(=O)CS4)CC2)c1C` belongs inactive: -0.143%; to `CC(=O)C1=C(O)C(=O)N(c2ccc(O)cc2)C1c1cccc(F)c1` (configuration not stated), inactive: 6.42%.
The same measure for `COc1ccc(NS(=O)(=O)c2cccc(NC(=O)c3ccc(S(=O)(=O)N4CCCCCC4)cc3)c2)cc1`: inactive: 0.652%; for `Cc1ccc(C)c(N2CCN(C(=O)C(Cc3ccccc3)n3cccc3)CC2)c1` (configuration not stated): inactive: -0.353%; for `CC(C)C(=O)Nc1c(-c2ccc(Cl)cc2)c(=O)c2ccccc2n1C`: inactive: 2.82%.
The same measure for `Cc1c(C=O)c2ccccc2n1CCOc1ccccc1`: inactive: 0.0197%; for `O=c1cc(C(F)(F)F)[nH]c2c(C(F)(F)F)cccc12`: inactive: 1.05%; for `Cc1ccc(S(=O)(=O)/N=C2/NC(=O)/C(=C\c3cc(Br)cc(Br)c3O)S2)cc1`: inactive: 3.98%.
For `O=C(NC1CCOc2ccccc21)c1ccccn1` (configuration not stated), the “activity change, negative = inhibition” value is inactive: 4%.
The same measure for `COC(=O)CSc1nc(NCc2ccccc2)nc(N(C)C)n1`: inactive: -0.113%; for `O=C(NCc1ccc2c(c1)OCO2)C12CN(Cc3ccccc3)CC1C(c1cccc([N+](=O)[O-])c1)=NO2` (configuration not stated): inactive: 4.74%; for `O=C(CSc1ccccn1)Nc1cccc2ccccc12`: inactive: 4.24%.
To `Cc1cc(C)cc(OC(C)C(=O)NCCCn2ccnc2)c1` (configuration not stated) belongs inactive: 5.36%; to `COC(=O)CCN(Cc1cc(OC)ccc1OC)S(=O)(=O)c1ccccc1Br`, inactive: 0.609%; to `C/C(=N\NC(=O)c1nnn(-c2nonc2N)c1-c1ccc(Cl)c(Cl)c1)c1ccncc1`, inactive: -4.56%.
To `CCn1nc(C)c(NC(=O)/C=C/c2ccc(OC)c(COc3ccc(Br)cc3)c2)c1C` belongs inactive: -1.82%; to `Cc1ccc(-c2cc(C(=O)Nc3ccncc3)c3ccccc3n2)cc1`, inactive: -1.46%; to `O=S(=O)(c1ccc(SCc2ccc(Cl)cc2)nc1)N1CCCC1`, inactive: 6.26%.
Consider `Cc1ccc(NS(=O)(=O)c2cc(C(=O)Nc3cccc([N+](=O)[O-])c3)ccc2C)cc1`, for which the “activity change, negative = inhibition” value is inactive: -5.13%.
To `Cc1ccc(-c2cn3cc(C)ccc3n2)cc1` belongs inactive: 2.4%.
The same measure for `COc1ccc(NS(=O)(=O)c2ccc3c(c2)Cc2ccccc2-3)cn1`: inactive: -0.188%; for `NC(=O)CSc1oc(-c2ccco2)nc1S(=O)(=O)c1ccccc1`: inactive: 1.42%; for `CC1S/C(=N\N=C\c2cccc([N+](=O)[O-])c2)N(C(C)(C)C)C1=O` (configuration not stated): inactive: -1.55%.
`CCN(CC)S(=O)(=O)c1cccc(C(=O)/C=C2/N(C)c3ccccc3C2(C)C)c1`: the “activity change, negative = inhibition” value is inactive: -8.84%.
The same measure for `COc1ccc(/C=C/C(=O)N2CCN(C)CC2)cc1OC`: inactive: 4.72%; for `COc1cc2ccccc2cc1C(=O)N1CCCC1`: inactive: 2.38%; for `CCOC(=O)C1=C(C)Nc2ccccc2N=C1NC(=O)c1cc(C)on1`: inactive: 3.54%.
The same measure for `COC(=O)[C@H]1[C@H]2C[C@@H]3c4[nH]c5cc(OC)ccc5c4CCN3C[C@H]2C[C@@H](OC(=O)/C=C/c2cc(OC)c(OC)c(OC)c2)[C@@H]1OC`: inactive: -3.39%; for `COc1ccccc1CNc1ncnc2sccc12`: inactive: 1.11%.
With `COc1ccc(OC)c(NC(=O)CSc2ncnc3c2cnn3-c2ccccc2Cl)c1`, the “activity change, negative = inhibition” value is inactive: 5.57%.
The same measure for `CN(C)S(=O)(=O)N1CCN(c2ccnc3cc(Cl)ccc23)CC1`: inactive: 0.353%; for `COc1cccc(-c2nc(CS(=O)(=O)CC(=O)NC3CCCCCC3)c(C)o2)c1`: inactive: -0.472%; for `CC(=O)c1ccc(N(C(=O)CNC(=O)c2ccco2)C(C(=O)NC2CCCC2)c2ccncc2)cc1` (configuration not stated): inactive: 4.76%.
To `Cc1ccc(C2(c3ccc(C)cc3)CC2C(=O)Nc2ccc([N+](=O)[O-])cc2O)cc1` (configuration not stated) belongs inactive: -4.43%; to `CC1=C(C(=O)OCC(Cl)(Cl)Cl)N2C(=O)C(NC(=O)Cc3ccccc3)C2SC1` (configuration not stated), inactive: 1.45%.
To `COc1ccc(-c2csc(NC(=O)c3ccccc3NS(=O)(=O)c3ccc(C)cc3)n2)cc1` belongs inactive: -5.21%; to `CCOC(=O)Cc1csc(NC(=O)COc2ccc(N(C)S(=O)(=O)c3cccs3)cc2)n1`, inactive: -7.57%.
With `O=C(NCCC1=CCCCC1)C(=O)NCC1OCCCN1S(=O)(=O)c1cc(F)ccc1F` (configuration not stated), the “activity change, negative = inhibition” value was inactive: 2.13%.
The same measure for `CS(=O)(=O)N1CCc2cc(C(=O)Nc3ccc(COCC(F)(F)F)cc3)ccc21`: inactive: -0.734%; for `COc1ccccc1CNC(=O)CSc1nc(N)c(C#N)c(-c2cccs2)c1C#N`: inactive: 0.573%.
To `Cc1cc(NC(=O)c2cccc(S(=O)(=O)N3CCOCC3)c2)c2ccccc2n1` belongs inactive: 1.33%; to `Cc1ccnc(OC(C(=O)O)C(OCCc2ccccc2)(c2ccccc2)c2ccccc2)n1` (configuration not stated), inactive: 2.81%.
The same measure for `Cc1cc(C)c(C2=NOC3C4CCC(C4)C23)c(C)c1` (configuration not stated): inactive: 2.6%; for `CCN(CCCNC(=O)Cn1ncc2c([nH]c3ccc(C)cc32)c1=O)c1cccc(C)c1`: inactive: 6.57%; for `CC1CCCCN1C(=O)CSCC(=O)Nc1nc(-c2cccs2)cs1` (configuration not stated): inactive: -1.89%.
Consider `CC(NC(=O)c1cc(=O)[nH]c2ccccc12)c1ccc(F)cc1F` (configuration not stated), for which the “activity change, negative = inhibition” value is inactive: 4.75%.
The same measure for `Cc1ccc(OCc2nnc(NC(=O)c3cccnc3)s2)cc1`: inactive: 3.34%; for `COc1ccc(NC(=O)c2ccc(-c3ccccc3)cc2)cc1NS(=O)(=O)c1ccc(F)cc1`: inactive: -5.28%.
The same measure for `Cc1cccc2c1NC(=O)C2(c1ccc(O)cc1)c1ccc(O)cc1`: inactive: 4.58%.
As to `Cc1cc(C)cc(C(=O)NC(CC(N)=O)c2ccc(NCCN3CCCC3)c([N+](=O)[O-])c2)c1` (configuration not stated), the “activity change, negative = inhibition” value is inactive: 2.31%.
To `COc1ccccc1N1CCN(C(=O)CCC(=O)N2CCN(c3ccc(F)cc3)CC2)CC1` belongs inactive: -6.6%.
In the case of `O=C(Cn1ncc2c([nH]c3ccccc32)c1=O)NCC1CCN(Cc2ccc(F)cc2)CC1`, the “activity change, negative = inhibition” value was inactive: -2.21%.
To `O=C(CCSc1ccc(Cl)c(Cl)c1)NC12CC3CC(CC(C3)C1)C2` belongs inactive: 3.68%; to `Cc1ccc(CNS(=O)(=O)c2ccc(CN3C(=O)c4cccnc4C3=O)s2)o1`, inactive: 1.68%.
Turning to `COc1cc2cnc(-c3ccccc3)c(-c3ccc(C#N)cc3)c2cc1OC`, the “activity change, negative = inhibition” value is inactive: -2.35%.
The same measure for `Cc1cc(C)n2nc(SCC(=O)Nc3ccccc3C)nc2n1`: inactive: 2.99%; for `O=S(=O)(Nc1cccnc1)c1ccc(Br)c2ccccc12`: inactive: 29.3%; for `Cc1ccc(CSc2nnc(SCC(=O)N/N=C/c3c(C)nn(-c4ccccc4)c3C)s2)cc1`: inactive: 1.1%.
To `CCSc1ncc(Cl)c(C(=O)Nc2ccccc2OC)n1` belongs inactive: 3.88%; to `COc1ccc(-c2csc3ncnc(N4CCN(S(=O)(=O)c5cccs5)CC4)c23)cc1`, inactive: 0.325%.
To `Cc1ccc(OCc2cc(C(=O)NCC3COCCO3)no2)cc1C` (configuration not stated) belongs inactive: 3.15%; to `O=C(NCCC1=CCCCC1)c1ccc2c(c1)N(Cc1ccccc1)C(=O)CS2`, inactive: -1.82%; to `CC1CC(C)CN(C(=O)c2ccc3c(=O)n(Cc4ccc5c(c4)OCO5)c(=S)[nH]c3c2)C1` (configuration not stated), inactive: -0.844%.
`CC(NC(=O)c1ccc([N+](=O)[O-])o1)C1CC2CCC1C2` (configuration not stated): the “activity change, negative = inhibition” value is inactive: 2.74%.
Regarding `O=C(NCCc1ccccc1)C(=O)NCC1OCCCN1S(=O)(=O)c1cc(F)ccc1F` (configuration not stated), the “activity change, negative = inhibition” value is inactive: 2.75%.
To `O=[N+]([O-])c1c(NCCO)cc(Sc2nc3ccccc3s2)c2nonc12` belongs inactive: -0.833%; to `Clc1ccc(C2Nc3cccc4cccc(c34)N2)cc1`, inactive: -6.26%; to `CC(C)C(c1nnnn1Cc1cccs1)N1CCN(c2ccccc2)CC1` (configuration not stated), inactive: 0.0915%.
The same measure for `COc1ccc(/C=N/n2c(SC)nnc(C(C)(C)C)c2=O)cc1`: inactive: -2.65%; for `O=C(Nc1nnc(C(F)(F)F)s1)c1ccc(Br)s1`: inactive: 4.59%; for `C=CCC1(CC=C)CCCN1C(=O)c1cc(COc2ccc(C)nc2)on1`: inactive: 0.634%.
For the compound `S=c1[nH]nc(-c2ccccc2)n1C1C=CCCC1` (configuration not stated), the “activity change, negative = inhibition” value was inactive: 3.95%.
The same measure for `COC(=O)c1sc(NC(=O)C(C)C)c(C(=O)OC)c1C`: inactive: 2.35%.
As to `O=[N+]([O-])c1ccc(NC(=S)NCc2ccc(F)cc2)cc1`, the “activity change, negative = inhibition” value is inactive: -9.76%.
To `Cc1ccc(NC(=S)c2nc3ccccc3s2)cc1` belongs inactive: 2.04%; to `Cc1ccc(NC(=S)NC(=O)c2ccc(F)cc2)cc1S(=O)(=O)Nc1cccc(Cl)c1`, inactive: -0.251%.
The same measure for `O=C(Nc1nnc(S(=O)(=O)N2CCCCC2)s1)c1cccc(Br)c1`: inactive: 1.82%.
